# Publication PMC10844593
# Chains of the proteins cited; added tags and fusions are not shown.
# UniProt Q64261: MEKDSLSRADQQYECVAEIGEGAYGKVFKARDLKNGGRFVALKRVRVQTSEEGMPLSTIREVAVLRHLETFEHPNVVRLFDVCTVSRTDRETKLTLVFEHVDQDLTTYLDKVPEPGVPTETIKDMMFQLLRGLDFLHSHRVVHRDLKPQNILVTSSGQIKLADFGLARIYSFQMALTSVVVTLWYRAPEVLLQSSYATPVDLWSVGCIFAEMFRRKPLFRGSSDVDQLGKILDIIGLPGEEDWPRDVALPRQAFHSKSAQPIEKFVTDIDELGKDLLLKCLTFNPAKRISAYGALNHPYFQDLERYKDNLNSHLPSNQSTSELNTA
# No constants are given. Whether binding was seen depends on the method and setting. Binding seen in cells or lysates may run through a third protein. Some entries that bind do so weakly or less than the wild type.
# Biological target: T1, Carbohydrate-responsive element-binding protein, β isoform (CHREBPβ) (mouse (endogenous in eWAT and ADSC)) (UniProt Q99MZ3)
# T1 sequence: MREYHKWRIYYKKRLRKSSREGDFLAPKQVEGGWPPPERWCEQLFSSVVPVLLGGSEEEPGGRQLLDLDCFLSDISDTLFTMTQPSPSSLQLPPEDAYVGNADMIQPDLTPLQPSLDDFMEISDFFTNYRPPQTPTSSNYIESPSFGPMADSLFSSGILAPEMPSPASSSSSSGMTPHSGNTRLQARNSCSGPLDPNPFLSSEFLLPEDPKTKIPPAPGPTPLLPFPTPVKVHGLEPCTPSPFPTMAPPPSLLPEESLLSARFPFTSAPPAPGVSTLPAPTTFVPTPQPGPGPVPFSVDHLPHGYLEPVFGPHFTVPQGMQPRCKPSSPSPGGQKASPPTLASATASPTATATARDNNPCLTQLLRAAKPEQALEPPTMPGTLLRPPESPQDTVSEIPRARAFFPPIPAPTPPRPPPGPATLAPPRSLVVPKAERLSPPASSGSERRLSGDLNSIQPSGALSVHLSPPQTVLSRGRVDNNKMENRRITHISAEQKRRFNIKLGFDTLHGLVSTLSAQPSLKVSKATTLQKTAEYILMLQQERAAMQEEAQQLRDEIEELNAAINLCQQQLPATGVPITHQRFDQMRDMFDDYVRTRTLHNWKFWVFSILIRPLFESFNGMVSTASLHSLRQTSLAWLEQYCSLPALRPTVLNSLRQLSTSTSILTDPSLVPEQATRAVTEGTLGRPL
# Assay: co-IP; IP-Western from eWAT extracts of WT, K43M and KR (K43M;Runx1-/-) mice; AMPKα, CDK6, CHREBP or p-AMPKα immunoprecipitated and blotted with the indicated antibodies; input 50 μg extract
substance,measurement,value
"Cyclin-dependent kinase 6 (CDK6), wild type (from UniProt Q64261 1-326) (enzyme)",binding,binds
